Measured values taken from doi:10.1101/2023.01.19.524697.
No constants are given. Whether binding was seen depends on the method and setting. In cells and extracts the contact can be indirect. Some binding calls cover weakened binding; strength is not graded here. Tags and fused reporters may be left off the sequences shown.

Protein sequences, listed by entry. Tags and fused reporters are not part of them.
UniProt Q39057: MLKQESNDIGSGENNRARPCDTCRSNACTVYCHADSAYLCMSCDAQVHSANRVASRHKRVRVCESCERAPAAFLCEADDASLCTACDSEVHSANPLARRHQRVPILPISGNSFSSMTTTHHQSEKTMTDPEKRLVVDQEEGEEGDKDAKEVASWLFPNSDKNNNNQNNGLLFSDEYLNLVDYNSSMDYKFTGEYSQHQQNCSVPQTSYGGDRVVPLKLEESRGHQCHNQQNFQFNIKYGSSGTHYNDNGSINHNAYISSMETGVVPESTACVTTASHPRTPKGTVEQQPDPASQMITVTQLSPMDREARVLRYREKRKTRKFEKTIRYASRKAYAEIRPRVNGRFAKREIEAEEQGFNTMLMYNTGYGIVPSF

How the values were obtained:
[1] = target: T1, YFN:HY5/YFC:PRR5 (HY5 and PRR5 with reconstituted YFP) (Arabidopsis thaliana) (UniProt O24646+Q6LA42); test: FRET or BRET
T1 sequence 1: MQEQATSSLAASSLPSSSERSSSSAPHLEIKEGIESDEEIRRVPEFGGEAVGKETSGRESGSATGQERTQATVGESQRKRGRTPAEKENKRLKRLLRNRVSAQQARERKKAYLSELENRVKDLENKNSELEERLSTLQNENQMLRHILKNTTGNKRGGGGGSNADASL
T1 sequence 2: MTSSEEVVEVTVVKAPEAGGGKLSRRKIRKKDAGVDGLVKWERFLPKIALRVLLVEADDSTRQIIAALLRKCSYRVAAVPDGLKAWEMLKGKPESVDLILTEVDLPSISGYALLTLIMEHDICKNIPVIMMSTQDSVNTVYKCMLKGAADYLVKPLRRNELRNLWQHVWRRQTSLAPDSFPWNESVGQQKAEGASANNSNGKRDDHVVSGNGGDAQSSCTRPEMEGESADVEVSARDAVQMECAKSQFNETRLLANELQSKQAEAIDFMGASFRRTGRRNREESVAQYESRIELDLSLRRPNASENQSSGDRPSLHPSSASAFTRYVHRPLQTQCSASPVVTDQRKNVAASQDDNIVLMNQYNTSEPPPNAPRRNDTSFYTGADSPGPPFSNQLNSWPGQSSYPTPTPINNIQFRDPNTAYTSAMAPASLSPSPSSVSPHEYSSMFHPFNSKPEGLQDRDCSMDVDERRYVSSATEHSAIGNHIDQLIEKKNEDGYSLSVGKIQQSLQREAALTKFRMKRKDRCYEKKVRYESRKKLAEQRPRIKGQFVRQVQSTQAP

[2] = target: T2, LONG HYPOCOTYL 5 (HY5), split-YFP fusion for BiFC (Arabidopsis thaliana) (UniProt O24646); test: split reporter
T2 sequence: T1 sequence 1

[3] = target: T3, PSEUDO RESPONSE REGULATOR 5 (PRR5), split-YFP fusion for BiFC (Arabidopsis thaliana) (UniProt Q6LA42); test: split reporter
T3 sequence: T1 sequence 2

Substance | binding [1] | binding [2] | binding [3]
CO:CFP (from UniProt Q39057 1-373) | binds |  | 
CONSTANS (CO), split-YFP fusion for BiFC (from UniProt Q39057 1-373) |  | binds | binds
